According to article PMC10076223:
Results are given in words; binding and its absence hold for the method and conditions named. Binding seen in cells or lysates may run through a third protein. Some results given as binding are weak or reduced against the parent protein; the word gives no strength.

The chains behind the UniProt entries cited, without tags or fusion partners.
UniProt Q91YE6: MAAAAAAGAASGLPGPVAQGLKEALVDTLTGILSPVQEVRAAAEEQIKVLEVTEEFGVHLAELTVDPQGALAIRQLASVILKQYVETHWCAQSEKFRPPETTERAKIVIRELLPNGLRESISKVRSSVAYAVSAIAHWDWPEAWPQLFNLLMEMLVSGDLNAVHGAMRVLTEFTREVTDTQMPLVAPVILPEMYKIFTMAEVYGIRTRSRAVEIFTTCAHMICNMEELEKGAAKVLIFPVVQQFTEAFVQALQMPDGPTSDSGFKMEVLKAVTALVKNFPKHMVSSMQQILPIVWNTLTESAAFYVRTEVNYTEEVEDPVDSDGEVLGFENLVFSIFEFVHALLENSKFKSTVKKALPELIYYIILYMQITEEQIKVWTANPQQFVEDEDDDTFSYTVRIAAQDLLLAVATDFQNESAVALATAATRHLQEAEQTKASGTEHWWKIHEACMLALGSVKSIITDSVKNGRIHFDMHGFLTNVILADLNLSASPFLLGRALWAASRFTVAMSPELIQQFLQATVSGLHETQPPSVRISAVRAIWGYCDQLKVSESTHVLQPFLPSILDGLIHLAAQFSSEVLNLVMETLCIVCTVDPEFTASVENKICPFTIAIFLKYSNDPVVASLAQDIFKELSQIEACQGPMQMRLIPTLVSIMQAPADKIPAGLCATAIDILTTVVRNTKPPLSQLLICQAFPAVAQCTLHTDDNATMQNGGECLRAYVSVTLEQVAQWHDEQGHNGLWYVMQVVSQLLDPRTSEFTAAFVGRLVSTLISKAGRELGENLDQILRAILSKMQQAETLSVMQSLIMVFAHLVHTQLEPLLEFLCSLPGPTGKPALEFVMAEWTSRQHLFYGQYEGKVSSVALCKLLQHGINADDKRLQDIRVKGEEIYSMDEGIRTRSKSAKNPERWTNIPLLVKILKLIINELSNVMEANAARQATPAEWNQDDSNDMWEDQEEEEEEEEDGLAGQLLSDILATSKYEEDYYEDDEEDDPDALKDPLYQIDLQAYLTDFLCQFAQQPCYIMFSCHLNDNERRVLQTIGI
UniProt Q9ER71: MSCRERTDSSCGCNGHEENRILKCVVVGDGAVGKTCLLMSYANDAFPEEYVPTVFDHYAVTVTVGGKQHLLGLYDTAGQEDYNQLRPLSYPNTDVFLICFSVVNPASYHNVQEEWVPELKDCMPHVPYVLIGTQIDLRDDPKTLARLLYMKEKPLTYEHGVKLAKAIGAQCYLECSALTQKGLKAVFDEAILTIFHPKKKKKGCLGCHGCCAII

Target: IPO9 (mouse (endogenous in EPCAM− skin SCC tumour cells)) (UniProt Q91YE6)
Assay: co-IP; anti-IPO9 (A305-475A, Bethyl) or rabbit IgG control immunoprecipitation from 1 mg precleared lysate of EPCAM− cells expressing HA-tagged RHOJ, 12 h after cisplatin/5FU; Dynabeads Protein G; washes in NETN buffer with 900 mM NaCl; western blot with anti-HA

binding: binds
Substance: 3HA-tagged RHOJ (from UniProt Q9ER71 1-214)
